The target of the assay is T1, cynomolgus monkey hepcidin-25 (cynomolgus monkey, UniProt A7XEI3 60-84, not fully specified).
T1 construct: mature; also called mature cynomolgous monkey hepcidin
T1 peptide: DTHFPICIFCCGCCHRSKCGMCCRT
The assay can be described thus: SPR (BIAcore), 25 C.

Substitutions are numbered along the chain they refer to. These are yes or no findings as the source states them, for the method shown. Some entries that bind do so weakly or less than the wild type.

B1: Mab 3.23 (antibody, human IgG4 S228P, kappa, V domains shown)
VH: QVQLVQSGAEVKKPGSSVKVSCKASGYTFLIYPISWVRQAPGQGLEWMGNFHPYLGVTNYVEKFKGRVTITADKSTSTAYMELSSLRSEDTAVYYCARGGTGSFDYWGQGTTVTVSS
VL: DIQMTQSPSSLSASVGDRVTITCSASSRVSSTYLFWYQQKPGKAPKLLIYRTSPLASGVPSRFSGSGSGTDFTLTISSLQPEDFATYYCQQWSGYPFVFGGGTKVEIKR
Consider B1, for which the binding result is recorded as “binds”.

B2: Mab Hu22 (antibody, human IgG4 S228P, kappa, V domains shown)
VH: B1 VH with L30T, V57D, V61N
VL: B1 VL with P54T, V98T
Turning to B2, the binding result was “binds”.
